Assay results reported in article PMC7228087.
Results are given in words; binding and its absence hold for the method and conditions named. In cells and extracts the contact can be indirect. Some entries that bind do so weakly or less than the wild type. Tags and fused reporters may be left off the sequences shown.

Target: T1, Cox6 with a tandem hemagglutinin plus protein C tag (S. cerevisiae) (UniProt P00427)
T1 sequence: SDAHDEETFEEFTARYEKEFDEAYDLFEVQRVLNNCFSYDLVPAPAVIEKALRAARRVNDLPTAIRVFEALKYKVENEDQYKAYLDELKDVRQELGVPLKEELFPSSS
Assay: co-IP; Cox6-HAC held on protein C antibody beads; 2% digitonin extracts of mitochondria labelled with 35S-methionine/cysteine; eluted with EDTA; SDS-PAGE and BN-PAGE, autoradiography; strains with Cox6-HAC without or with mss51, mss51 pet494 or cox5a null mutations, cells grown with or without 2 mg/ml chloramphenicol, pulse and chase

B1: cytochrome b (protein, UniProt P00163 1-385)
chain: MAFRKSNVYLSLVNSYIIDSPQPSSINYWWNMGSLLGLCLVIQIVTGIFMAMHYSSNIELAFSSVEHIMRDVHNGYILRYLHANGASFFFMVMFMHMAKGLYYGSYRSPRVTLWNVGVIIFILTIATAFLGYCCVYGQMSHWGATVITNLFSAIPFVGNDIVSWLWGGFSVSNPTIQRFFALHYLVPFIIAAMVIMHLMALHIHGSSNPLGITGNLDRIPMHSYFIFKDLVTVFLFMLILALFVFYSPNTLGHPDNYIPGNPLVTPASIVPEWYLLPFYAILRSIPDKLLGVITMFAAILVLLVLPFTDRSVVRGNTFKVLSKFFFFIFVFNFVLLGQIGACHVEVPYVLMGQIATFIYFAYFLIIVPVISTIENVLFYIGRVNK
B1 was tested, and the binding was “binds”.

B2: Cox2 (protein, UniProt P00410 16-251)
chain: DVPTPYACYFQDSATPNQEGILELHDNIMFYLLVILGLVSWMLYTIVMTYSKNPIAYKYIKHGQTIEVIWTIFPAVILLIIAFPSFILLYLCDEVISPAMTIKAIGYQWYWKYEYSDFINDSGETVEFESYVIPDELLEEGQLRLLDTDTSMVVPVDTHIRFVVTAADVIHDFAIPSLGIKVDATPGRLNQVSALIQREGVFYGACSELCGTGHANMPIKIEAVSLPKFLEWLNEQ
In the case of B2, the binding is reported as “binds”.

B3: Atp9 with the V68C and S69C mutations (protein, UniProt P61829 1-76)
chain: MQLVLAAKYIGAGISTIGLLGAGIGIAIVFAALINGVSRNPSIKDTVFPMAILGFALSEATGLFCLMCCFLLLFGV
With B3 the binding was “binds”.
